# Laboratory results: PubChem BioAssay AID743255 (National Center for Advancing Translational Sciences (NCATS), 2014)
# Chains of the proteins cited; added tags and fusions are not shown. Lines headed by an entry give the natural chain unless they say otherwise; changes in a name come on top.
# UniProt O94782: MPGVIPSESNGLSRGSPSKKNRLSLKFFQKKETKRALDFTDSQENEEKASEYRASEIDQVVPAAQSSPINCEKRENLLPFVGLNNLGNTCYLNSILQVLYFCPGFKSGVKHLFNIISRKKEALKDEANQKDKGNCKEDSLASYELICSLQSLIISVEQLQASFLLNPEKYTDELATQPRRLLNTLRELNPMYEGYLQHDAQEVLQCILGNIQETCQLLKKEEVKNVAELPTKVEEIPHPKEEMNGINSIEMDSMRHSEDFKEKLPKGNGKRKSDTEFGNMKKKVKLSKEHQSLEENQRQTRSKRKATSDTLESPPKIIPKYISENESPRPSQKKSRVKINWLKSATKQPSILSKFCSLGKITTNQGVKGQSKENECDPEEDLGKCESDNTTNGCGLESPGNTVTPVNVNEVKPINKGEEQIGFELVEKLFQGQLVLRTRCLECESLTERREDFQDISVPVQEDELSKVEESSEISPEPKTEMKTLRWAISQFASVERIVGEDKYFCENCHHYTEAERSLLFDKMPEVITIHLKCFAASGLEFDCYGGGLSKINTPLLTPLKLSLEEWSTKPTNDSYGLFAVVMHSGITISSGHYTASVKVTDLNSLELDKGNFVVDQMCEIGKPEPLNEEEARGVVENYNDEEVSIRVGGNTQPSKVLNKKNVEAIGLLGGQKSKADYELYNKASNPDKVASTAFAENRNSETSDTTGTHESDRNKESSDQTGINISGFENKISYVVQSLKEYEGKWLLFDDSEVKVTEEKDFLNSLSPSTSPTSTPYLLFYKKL
# Out of some 390,000 compounds screened, about 910 (0.23%) were called active. Inconclusive results, whose numbers are uncertain, are shown with a selection of clear calls. The call rests on the fitted dose curve; in most records, active means well fitted inhibition curve with a large enough effect; inconclusive means small, poorly fitted or top-dose-only effect; inactive means no such curve, though single readings can be large or run the other way. Where the call is inconclusive, the potency comes from a doubtful curve fit.
# Molecular target: Ubiquitin carboxyl-terminal hydrolase 1 (Homo sapiens) (UniProt O94782)
# Experiment: Inhibitors of USP1/UAF1: Primary Screen; further: nearly all actives have a fitted effect of over 60% in size
# Conditions: recombinant USP1/UAF1, Ub-Rhodamine cleavage fluorescence; series mostly up to 57.1 µM
# Method in brief: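 High-throughput fluorogenic screen: 1nM USP1/UAF1 complex, Ub-Rho substrate 150nM final, 50mM HEPES pH 7.8 with 0.5mM EDTA, 0.1 mg/ml BSA, 1mM TCEP and 0.01% Tween-20.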
# Potency means the concentration at half of the fitted maximal effect.
row,Compound,Potency
1,O=C(Cn1c(=O)nc(-c2ccccc2)c2ccccc21)Nc1ccc(Cl)c(C(F)(F)F)c1,inactive
2,CN(C(=O)c1ccc(F)cc1)c1ccc(OCC(=O)Nc2ccccc2C(=O)O)cc1,"inconclusive: 5.62 µM [inhibitor, full curve, poor fit]"
3,O=C(CSc1nc(-c2ccccc2)no1)N1CCN(c2ccccc2F)CC1,"inconclusive: 11.2 µM [inhibitor, partial curve, poor fit]"
4,COc1ccc(C(=O)c2cn(CC(=O)Nc3ccc4c(c3)OCCO4)c3ccc(OC)cc3c2=O)cc1,"inconclusive: 11.2 µM [inhibitor, full curve, poor fit]"
5,CN(C)/C=N/c1[nH]ncc1C#N,"inconclusive: 7.94 µM [inhibitor, full curve, poor fit]"
6,O=C(Nc1cccc(Cl)c1)NC1(C(=O)NCc2cccs2)CCCCC1,"inconclusive: 35.5 µM [inhibitor, single point]"
7,Cc1ccc(S(=O)(=O)NNC(=S)Nc2ccc(Cl)cc2)cc1,inactive
8,O=C(CNC(=O)c1ccc2c(c1)OCO2)Nc1ncccc1O,"inconclusive: 31.6 µM [inhibitor, partial curve]"
9,Cc1cc(-c2nc(C)c(-c3nnc(SCC(=O)Nc4ccc(Cl)cc4)n3C)s2)no1,inactive
10,COc1ccccc1NC(=O)COC(=O)CCC(=O)c1cccs1,"inconclusive: 6.31 µM [inhibitor, full curve]"
11,COc1ccc(NC(=O)c2c(NCc3ccc(C)o3)sc3c2CCC(C)C3)c(OC)c1 (stereo not given),inactive
12,COc1ccc(OC)c(NC(=O)CSc2ccnc(=O)[nH]2)c1,inactive
13,COc1cccc(C(N)=O)c1,"inconclusive: 31.6 µM [inhibitor, single point]"
14,N#Cc1c(-c2cccs2)nc(SCC(=O)c2ccc(Br)cc2)[nH]c1=O,"inconclusive: 44.7 µM [inhibitor, partial curve, poor fit]"
15,C[C@H](CO)N1C[C@H](C)[C@@H](CN(C)C(=O)Nc2ccccc2)Oc2c(NC(=O)Nc3ccc(C(F)(F)F)cc3)cccc2C1=O,"inconclusive: 35.5 µM [inhibitor, partial curve, poor fit]"
16,COCCNC(=O)COC(=O)c1cccnc1SC,"inconclusive: 0.316 µM [inhibitor, full curve, poor fit]"
17,Cn1cccc1C1CCCN1CC(=O)Nc1c(Cl)cc(Cl)cc1Cl (stereo not given),"inconclusive: 39.8 µM [inhibitor, single point]"
18,Cn1c(SCC(=O)N2c3ccccc3Sc3ccccc32)nnc1-c1ccco1,inactive
19,O=C(Nc1cccc(-c2csc(-c3ccccc3)n2)c1)c1cccs1,inactive
20,COCCNC(=O)c1c[nH]c2ccc(S(=O)(=O)N3CCc4ccccc43)cc2c1=O,"inconclusive: 5.62 µM [inhibitor, partial curve, poor fit]"
21,COC(=O)C1=CC(C(=O)c2cccs2)=NN(c2ccc(OC)cc2)C1C(=O)OC (stereo not given),"inconclusive: 31.6 µM [inhibitor, partial curve]"
22,O=S(=O)([N-]c1nc2ccccc2nc1-[n+]1ccc(CCCc2ccccc2)cc1)c1cccs1,"inconclusive: 6.31 µM [inhibitor, partial curve]"

# Sorted by count of non-hydrogen atoms (largest number first): 5 of the compounds above.
row,Compound,Potency
4,COc1ccc(C(=O)c2cn(CC(=O)Nc3ccc4c(c3)OCCO4)c3ccc(OC)cc3c2=O)cc1,"inconclusive: 11.2 µM [inhibitor, full curve, poor fit]"
1,O=C(Cn1c(=O)nc(-c2ccccc2)c2ccccc21)Nc1ccc(Cl)c(C(F)(F)F)c1,inactive
11,COc1ccc(NC(=O)c2c(NCc3ccc(C)o3)sc3c2CCC(C)C3)c(OC)c1 (stereo not given),inactive
20,COCCNC(=O)c1c[nH]c2ccc(S(=O)(=O)N3CCc4ccccc43)cc2c1=O,"inconclusive: 5.62 µM [inhibitor, partial curve, poor fit]"
10,COc1ccccc1NC(=O)COC(=O)CCC(=O)c1cccs1,"inconclusive: 6.31 µM [inhibitor, full curve]"

# Further results

row,Compound,Potency
1,CCSc1cc(N2CCCC2)nc(-c2ccc(C)cc2)n1,inactive
2,CN1CCN(C(=O)C2=C[C@@H](c3coc4ccccc4c3=O)C[C@@H](OCc3ccc(CO)cc3)O2)CC1,"inconclusive: 2.82 µM [inhibitor, full curve, poor fit]"
3,OC1(c2ccc3c(c2)OCO3)CCN(Cc2ccccn2)CC1,inactive
4,COc1cc(/C=C2\SC(c3ccc(C)cc3)=NC2=O)cc(OC)c1OC,"inconclusive: 31.6 µM [inhibitor, partial curve, poor fit]"
5,Nn1cnnc1N/N=C/c1ccc(Cl)c([N+](=O)[O-])c1,"inconclusive: 35.5 µM [inhibitor, single point]"
6,CCOn1c(=O)c(-c2ccc(Br)cc2)[n+]([O-])c2ccccc21,inactive
7,CCCCCC(=O)NC(Cc1ccc(OC)c([N+](=O)[O-])c1)C(=O)O (stereo not given),inactive
8,CCOc1ccccc1/C=C/c1onc(C)c1S(=O)(=O)N1CCC(C(=O)N(CC)CC)CC1,"inconclusive: 141 µM [inhibitor, partial curve, poor fit]"
9,COc1ccc(-c2cnnn2-c2ccc(NC(=O)c3c(F)cccc3F)cc2)cc1,"inconclusive: 44.7 µM [inhibitor, partial curve, poor fit]"
10,Cc1c(Cl)cccc1NC(=S)N(Cc1ccccc1)Cc1cccnc1,"inconclusive: 56.2 µM [inhibitor, partial curve, poor fit]"
11,CN(C)S(=O)(=O)c1cccc(-n2sc3ccccc3c2=O)c1,inactive
12,Cc1ccc(Cc2c(-c3ccc(Cl)cc3)nc3ccc(Cl)cn23)cc1,"inconclusive: 50.1 µM [inhibitor, partial curve, poor fit]"
13,Cc1cc(=O)oc2c(CN3CC(C)OC(C)C3)c(O)c(Cl)cc12 (stereo not given),"inconclusive: 31.6 µM [inhibitor, single point]"
14,CC(C)(C)NC(=O)C[C@H]1C[C@H](C(=O)N2CCOCC2)[C@@]2(C)c3[nH]c4cc(-c5ccco5)ccc4c3CCN2C1=O,"inconclusive: 50.1 µM [inhibitor, partial curve, poor fit]"
15,O=C(NCc1cccs1)C1CCN(S(=O)(=O)N2CCCC2)CC1,"inconclusive: 31.6 µM [inhibitor, partial curve]"
16,Cc1cc(C)nc(NS(=O)(=O)c2ccc(NC(=O)Cc3ccccc3)cc2)n1,"inconclusive: 15.8 µM [inhibitor, partial curve]"
17,CC(C)(C)OC(=O)C[C@@H]1C/C=C\C[C@H](CC(=O)N[C@H](CO)Cc2ccccc2)C(=O)N2CCC[C@H]2COC1=O,"inconclusive: 3.55 µM [inhibitor, full curve, poor fit]"
18,O=C(CN1C(=O)COc2ccc(S(=O)(=O)N3CCCCCC3)cc21)NCc1ccc(F)cc1,"inconclusive: 44.7 µM [inhibitor, single point]"
19,CCc1ccc(CNC(=O)CN2CCSc3ccccc32)cc1,"inconclusive: 25.1 µM [inhibitor, partial curve]"
20,COc1ccc(NC(=O)CC2C(=O)NCCN2C(=O)c2ccc(Cl)cc2)cc1 (stereo not given),inactive
21,CCOc1ccc(/C=C(\C#N)C(=O)Nc2cccnc2)cc1,inactive
22,Nc1cnn(Cc2ccccc2F)c1,"inconclusive: 31.6 µM [inhibitor, partial curve]"

row,Compound,Potency
1,COC(=O)c1ccc(COC(=O)CNC(=O)c2ccc(OC)cc2)cc1,inactive
2,CCN1C(N(C)CCc2cccs2)=N[C@@H](c2ccccc2)C(C(=O)OC)=C1C,"inconclusive: 39.8 µM [inhibitor, partial curve, poor fit]"
3,COc1ccccc1CNC(=O)c1ccc(-c2nc(CN3CCc4ccccc43)c(C)o2)cc1,inactive
4,CC(=O)NC(CC(=O)N(C)C1CCCCC1)c1ccccc1 (stereo not given),"inconclusive: 35.5 µM [inhibitor, single point]"
5,COc1c(Cl)cc(-c2noc(C)c2C(=O)NC(C)C)cc1Cl,"inconclusive: 0.708 µM [inhibitor, full curve, poor fit]"
6,COc1ccc(C(CCNC(C)c2ccccc2)c2ccc(F)cc2)cc1 (stereo not given),inactive
7,COc1ccccc1S(=O)(=O)N(C)C[C@H]1Oc2cc(Br)ccc2S(=O)(=O)N([C@@H](C)CO)C[C@H]1C,"inconclusive: 31.6 µM [inhibitor, partial curve]"
8,Cn1c(=O)oc2cc(S(=O)(=O)Nc3ccc(C(=O)O)cc3)ccc21,"inconclusive: 5.01 µM [inhibitor, partial curve]"
9,CCC(=O)N1CCc2cc(Br)cc(S(=O)(=O)N3CCCC(C(=O)N(C)c4ccc(Br)cc4)C3)c21 (stereo not given),inactive
10,CC[C@@H](CC1CCCCC1)C(=O)N(Cc1ccccc1)c1ccccc1,"inconclusive: 44.7 µM [inhibitor, partial curve, poor fit]"
11,CCOC(=O)Cn1c(=O)c(-c2cc(Br)ccc2N)nc2ccccc21,"inconclusive: 39.8 µM [inhibitor, partial curve]"
12,C=CCn1c(C)cc(/C([O-])=C(/C(=S)Nc2ccc(OC(F)F)cc2)[n+]2ccc(N(C)C)cc2)c1C,"inconclusive: 39.8 µM [inhibitor, partial curve, poor fit]"
13,CCCCNC(=O)C1Cc2cc(S(=O)(=O)N3CCCC3)ccc2N1C(C)=O (stereo not given),"inconclusive: 5.62 µM [inhibitor, partial curve]"
14,CN1C(=O)c2cccc3c(S(=O)(=O)Nc4ccccn4)ccc1c23,inactive
15,COC(=O)c1ccc(COc2ccccc2/C=N/NC(N)=O)o1,"inconclusive: 20 µM [inhibitor, partial curve, poor fit]"
16,CN(C)c1nc(N)c2nccnc2n1,inactive
17,CCCCC1=CC2=CC(=O)C(C)(OC(=O)CC)C(=O)C2=CN1c1ccccc1 (stereo not given),"inconclusive: 12.6 µM [inhibitor, partial curve]"
18,COC(=O)COc1ccc(C2Nc3c(Cl)ccc(C(=O)O)c3C3C=CCC32)cc1 (stereo not given),"inconclusive: 39.8 µM [inhibitor, partial curve]"
19,COc1ccc(CNc2ccc3cn[nH]c3c2)c(OC)c1OC,"inconclusive: 28.2 µM [inhibitor, single point]"
20,CN1CCN(C(=O)C(=O)c2cn(CC(=O)N3CCCCCC3)c3ccccc23)CC1,"inconclusive: 0.631 µM [inhibitor, full curve, poor fit]"
21,O=C(CN1CCN(C(=O)CNC(=O)c2ccc(-c3ccccc3)cc2)CC1)Nc1ccccc1Cl,inactive
